No constants are given. Whether binding was seen depends on the method and setting. In cells and extracts the contact can be indirect. Some binding calls cover weakened binding; strength is not graded here. For some of these results: Where a sequence is shown, tags or fusion partners need not be part of it. Values belong to the molecule of their own block, whether it stands above or below them.
Tests used:
[1] = target: GST:SINTBADaa5-85 (human) (UniProt A7MCY6); assay: pull-down; GST-based LUMIER: GST fusion from E. coli immobilised on glutathione 4b Sepharose beads, incubated with lysate of transfected HEK293ET cells expressing the Renilla luciferase-tagged protein, 2 h at 4°C, four washes, eluted with 20 mM glutathione, luciferase activity as fold binding against GST only; only the target purified
GST:NAP1aa5–75 (human) = GST:NAP1aa5–75 (human) (UniProt Q9H6S1); assay: as above
GST-FIP200ΔN1115 (human) [2] = target: GST-FIP200ΔN1115 (human) (UniProt Q8TDY2); assay: as above
[3] = target: T1, Luciferase-NDP52 A119Q (human) (UniProt Q13137); assay: pull-down; same experiment as a5; pair of the titrated fragment in bacterial lysate with Luciferase:NDP52, read as luciferase brought to GST-FIP200ΔN1115 beads (bell-shaped curves)
T1 sequence: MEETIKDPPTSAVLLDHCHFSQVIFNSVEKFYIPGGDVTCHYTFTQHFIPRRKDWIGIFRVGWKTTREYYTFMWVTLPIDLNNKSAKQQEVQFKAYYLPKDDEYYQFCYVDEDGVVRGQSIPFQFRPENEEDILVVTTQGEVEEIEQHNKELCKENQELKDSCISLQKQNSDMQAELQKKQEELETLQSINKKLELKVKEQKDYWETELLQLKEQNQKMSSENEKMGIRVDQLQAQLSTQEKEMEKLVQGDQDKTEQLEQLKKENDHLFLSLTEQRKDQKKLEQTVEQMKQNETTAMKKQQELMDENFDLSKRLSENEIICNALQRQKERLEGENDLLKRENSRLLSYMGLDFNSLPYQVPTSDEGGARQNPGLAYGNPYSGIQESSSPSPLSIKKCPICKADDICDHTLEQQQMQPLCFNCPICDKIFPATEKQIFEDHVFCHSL

The chains behind the UniProt entries cited, without tags or fusion partners. Where a name states a change or a piece, a line headed by the entry shows the natural chain unless it says otherwise. A line that says so, or that is headed by a name, gives the form on record, which may keep a tag or linker. Residues count along the entry.
UniProt A7MCY6: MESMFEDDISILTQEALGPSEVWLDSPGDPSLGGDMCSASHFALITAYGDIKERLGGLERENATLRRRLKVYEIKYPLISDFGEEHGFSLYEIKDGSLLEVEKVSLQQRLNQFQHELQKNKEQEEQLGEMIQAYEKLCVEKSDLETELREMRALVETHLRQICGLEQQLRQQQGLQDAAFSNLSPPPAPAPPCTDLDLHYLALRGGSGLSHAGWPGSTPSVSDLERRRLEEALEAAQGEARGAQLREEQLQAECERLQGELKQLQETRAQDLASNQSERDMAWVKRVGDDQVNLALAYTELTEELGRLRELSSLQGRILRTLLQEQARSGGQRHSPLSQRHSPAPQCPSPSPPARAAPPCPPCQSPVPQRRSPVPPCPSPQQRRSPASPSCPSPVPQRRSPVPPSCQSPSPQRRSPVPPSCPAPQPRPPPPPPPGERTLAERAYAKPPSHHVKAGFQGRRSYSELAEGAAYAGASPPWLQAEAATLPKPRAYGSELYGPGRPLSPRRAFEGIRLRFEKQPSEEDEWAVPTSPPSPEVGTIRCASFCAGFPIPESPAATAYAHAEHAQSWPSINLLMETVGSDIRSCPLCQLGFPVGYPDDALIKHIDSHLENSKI
UniProt Q9H6S1: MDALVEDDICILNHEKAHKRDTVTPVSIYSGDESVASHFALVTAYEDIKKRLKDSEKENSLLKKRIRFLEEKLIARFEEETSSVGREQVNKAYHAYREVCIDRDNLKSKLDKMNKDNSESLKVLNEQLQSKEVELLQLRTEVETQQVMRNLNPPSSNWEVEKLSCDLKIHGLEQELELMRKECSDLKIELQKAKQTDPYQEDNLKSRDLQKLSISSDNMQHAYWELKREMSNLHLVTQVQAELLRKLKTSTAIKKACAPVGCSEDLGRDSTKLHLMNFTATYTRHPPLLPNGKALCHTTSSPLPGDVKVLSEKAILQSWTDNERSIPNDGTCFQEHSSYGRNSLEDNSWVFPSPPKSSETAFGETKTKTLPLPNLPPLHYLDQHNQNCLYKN
GST-FIP200ΔN1115 (Q8TDY2, residues 1116-1594): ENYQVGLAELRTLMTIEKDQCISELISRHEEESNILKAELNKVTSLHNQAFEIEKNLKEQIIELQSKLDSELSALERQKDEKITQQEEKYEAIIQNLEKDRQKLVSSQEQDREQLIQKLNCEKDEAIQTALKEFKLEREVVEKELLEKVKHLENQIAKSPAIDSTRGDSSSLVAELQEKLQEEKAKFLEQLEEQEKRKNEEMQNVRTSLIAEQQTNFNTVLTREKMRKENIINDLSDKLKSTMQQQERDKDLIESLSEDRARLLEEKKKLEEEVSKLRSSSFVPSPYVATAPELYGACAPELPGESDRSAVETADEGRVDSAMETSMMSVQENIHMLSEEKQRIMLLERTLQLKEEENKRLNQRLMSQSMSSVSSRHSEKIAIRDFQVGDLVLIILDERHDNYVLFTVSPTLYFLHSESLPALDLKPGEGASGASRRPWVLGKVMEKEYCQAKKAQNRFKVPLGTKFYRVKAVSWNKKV
FIP200 ΔN1115 E1463A-Luciferase (Q8TDY2, form named): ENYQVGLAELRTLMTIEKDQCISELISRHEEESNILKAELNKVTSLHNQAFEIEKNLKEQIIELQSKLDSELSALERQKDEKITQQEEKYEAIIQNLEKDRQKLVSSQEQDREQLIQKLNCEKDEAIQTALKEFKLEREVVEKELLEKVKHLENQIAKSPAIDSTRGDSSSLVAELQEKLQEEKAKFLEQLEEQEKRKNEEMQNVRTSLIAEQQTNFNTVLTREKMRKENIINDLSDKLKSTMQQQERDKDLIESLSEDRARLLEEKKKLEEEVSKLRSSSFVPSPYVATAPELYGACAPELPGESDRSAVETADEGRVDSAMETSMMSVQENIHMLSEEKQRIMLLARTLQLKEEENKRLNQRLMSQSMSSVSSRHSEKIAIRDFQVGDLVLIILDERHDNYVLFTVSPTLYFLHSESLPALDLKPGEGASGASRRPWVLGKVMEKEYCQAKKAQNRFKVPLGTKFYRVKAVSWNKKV
FIP200 ΔN1115 F1574S-Luciferase (Q8TDY2, form named): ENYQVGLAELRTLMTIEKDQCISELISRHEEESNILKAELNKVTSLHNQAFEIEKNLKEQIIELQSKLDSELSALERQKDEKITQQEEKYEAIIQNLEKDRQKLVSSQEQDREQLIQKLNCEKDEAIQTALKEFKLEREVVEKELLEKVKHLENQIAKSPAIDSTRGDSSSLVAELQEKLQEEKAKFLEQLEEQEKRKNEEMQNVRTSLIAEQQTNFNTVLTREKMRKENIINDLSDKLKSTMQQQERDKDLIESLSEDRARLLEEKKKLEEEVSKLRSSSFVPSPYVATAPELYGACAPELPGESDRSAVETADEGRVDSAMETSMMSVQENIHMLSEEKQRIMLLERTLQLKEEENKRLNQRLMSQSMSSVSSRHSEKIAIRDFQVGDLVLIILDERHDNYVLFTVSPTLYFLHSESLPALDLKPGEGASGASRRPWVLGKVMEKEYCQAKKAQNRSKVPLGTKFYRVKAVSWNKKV
FIP200 ΔN1115 L1462A-Luciferase (Q8TDY2, form named): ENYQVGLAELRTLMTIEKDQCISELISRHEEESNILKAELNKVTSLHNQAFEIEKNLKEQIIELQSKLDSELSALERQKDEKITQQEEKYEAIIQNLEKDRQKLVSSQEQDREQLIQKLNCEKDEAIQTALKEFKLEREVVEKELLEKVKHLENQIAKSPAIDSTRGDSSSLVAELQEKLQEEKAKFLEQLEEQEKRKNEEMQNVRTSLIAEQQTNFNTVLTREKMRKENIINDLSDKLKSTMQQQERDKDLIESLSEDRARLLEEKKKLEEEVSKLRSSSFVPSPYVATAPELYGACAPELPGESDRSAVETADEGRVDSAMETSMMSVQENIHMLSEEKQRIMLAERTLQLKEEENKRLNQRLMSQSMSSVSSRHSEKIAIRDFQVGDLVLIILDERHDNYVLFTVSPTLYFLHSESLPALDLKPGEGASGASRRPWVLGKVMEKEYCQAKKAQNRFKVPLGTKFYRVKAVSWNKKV
FIP200 ΔN1115 L1466A-Luciferase (Q8TDY2, form named): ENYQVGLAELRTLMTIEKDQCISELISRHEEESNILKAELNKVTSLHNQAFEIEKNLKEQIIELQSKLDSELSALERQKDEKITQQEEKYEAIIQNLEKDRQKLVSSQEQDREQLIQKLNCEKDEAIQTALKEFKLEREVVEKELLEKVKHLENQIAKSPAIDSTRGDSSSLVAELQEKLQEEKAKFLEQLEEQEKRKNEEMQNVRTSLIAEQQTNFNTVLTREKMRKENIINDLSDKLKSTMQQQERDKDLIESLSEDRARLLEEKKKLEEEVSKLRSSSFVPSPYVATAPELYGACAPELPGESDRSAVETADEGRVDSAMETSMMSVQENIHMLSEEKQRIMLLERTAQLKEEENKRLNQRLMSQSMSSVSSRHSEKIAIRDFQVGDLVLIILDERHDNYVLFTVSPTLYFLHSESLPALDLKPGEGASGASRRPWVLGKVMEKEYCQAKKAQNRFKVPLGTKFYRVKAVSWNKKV
FIP200 ΔN1115 L1468A-Luciferase (Q8TDY2, form named): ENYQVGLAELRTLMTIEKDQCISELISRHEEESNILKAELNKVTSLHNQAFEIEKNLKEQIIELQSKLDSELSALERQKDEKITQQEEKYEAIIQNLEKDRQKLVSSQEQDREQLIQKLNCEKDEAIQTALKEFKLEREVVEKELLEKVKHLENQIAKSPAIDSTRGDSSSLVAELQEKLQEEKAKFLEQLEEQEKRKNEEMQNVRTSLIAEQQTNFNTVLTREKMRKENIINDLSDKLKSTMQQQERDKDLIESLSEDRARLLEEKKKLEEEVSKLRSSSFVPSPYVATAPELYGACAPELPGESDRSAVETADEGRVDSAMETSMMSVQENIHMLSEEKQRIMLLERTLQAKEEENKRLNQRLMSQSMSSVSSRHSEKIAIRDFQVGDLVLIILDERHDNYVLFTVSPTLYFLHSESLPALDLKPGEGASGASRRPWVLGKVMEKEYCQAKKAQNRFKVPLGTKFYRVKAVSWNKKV
FIP200 ΔN1115 N1572S-Luciferase (Q8TDY2, form named): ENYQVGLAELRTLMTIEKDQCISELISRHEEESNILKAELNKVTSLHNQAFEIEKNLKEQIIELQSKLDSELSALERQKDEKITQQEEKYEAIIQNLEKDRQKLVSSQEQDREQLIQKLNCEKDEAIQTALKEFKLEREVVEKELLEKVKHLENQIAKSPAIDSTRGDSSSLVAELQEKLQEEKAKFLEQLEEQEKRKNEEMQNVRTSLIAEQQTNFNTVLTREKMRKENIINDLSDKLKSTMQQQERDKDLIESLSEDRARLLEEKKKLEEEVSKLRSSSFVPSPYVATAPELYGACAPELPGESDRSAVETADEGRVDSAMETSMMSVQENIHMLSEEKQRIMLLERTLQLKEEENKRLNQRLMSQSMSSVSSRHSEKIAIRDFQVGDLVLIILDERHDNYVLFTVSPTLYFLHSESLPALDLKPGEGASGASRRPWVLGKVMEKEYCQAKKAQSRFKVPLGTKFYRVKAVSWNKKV
FIP200 ΔN1115 Q1467A-Luciferase (Q8TDY2, form named): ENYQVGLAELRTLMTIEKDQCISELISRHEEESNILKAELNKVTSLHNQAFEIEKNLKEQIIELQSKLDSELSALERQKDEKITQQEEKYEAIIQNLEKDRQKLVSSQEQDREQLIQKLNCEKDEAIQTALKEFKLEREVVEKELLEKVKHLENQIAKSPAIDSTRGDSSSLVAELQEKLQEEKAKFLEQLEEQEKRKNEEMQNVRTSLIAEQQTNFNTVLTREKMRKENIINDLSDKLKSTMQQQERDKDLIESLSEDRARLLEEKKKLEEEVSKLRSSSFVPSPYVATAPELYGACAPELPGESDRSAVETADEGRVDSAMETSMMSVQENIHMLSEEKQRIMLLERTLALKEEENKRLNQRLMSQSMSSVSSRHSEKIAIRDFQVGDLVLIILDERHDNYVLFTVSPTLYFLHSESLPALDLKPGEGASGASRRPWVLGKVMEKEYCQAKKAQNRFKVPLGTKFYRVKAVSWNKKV
FIP200 ΔN1115 R1464A-Luciferase (Q8TDY2, form named): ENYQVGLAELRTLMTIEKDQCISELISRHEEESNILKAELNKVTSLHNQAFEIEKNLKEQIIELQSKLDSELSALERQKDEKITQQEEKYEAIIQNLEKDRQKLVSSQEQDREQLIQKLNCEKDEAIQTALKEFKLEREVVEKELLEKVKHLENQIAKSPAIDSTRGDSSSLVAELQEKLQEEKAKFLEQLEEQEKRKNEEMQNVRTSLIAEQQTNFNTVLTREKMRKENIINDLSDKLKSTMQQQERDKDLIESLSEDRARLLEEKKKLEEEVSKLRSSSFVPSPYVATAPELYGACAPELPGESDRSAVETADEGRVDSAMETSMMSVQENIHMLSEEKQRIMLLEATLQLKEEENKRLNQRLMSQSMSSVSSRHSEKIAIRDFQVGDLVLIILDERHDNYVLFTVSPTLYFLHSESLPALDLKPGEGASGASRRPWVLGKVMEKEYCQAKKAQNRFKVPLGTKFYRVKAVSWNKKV
FIP200 ΔN1115 T1465A-Luciferase (Q8TDY2, form named): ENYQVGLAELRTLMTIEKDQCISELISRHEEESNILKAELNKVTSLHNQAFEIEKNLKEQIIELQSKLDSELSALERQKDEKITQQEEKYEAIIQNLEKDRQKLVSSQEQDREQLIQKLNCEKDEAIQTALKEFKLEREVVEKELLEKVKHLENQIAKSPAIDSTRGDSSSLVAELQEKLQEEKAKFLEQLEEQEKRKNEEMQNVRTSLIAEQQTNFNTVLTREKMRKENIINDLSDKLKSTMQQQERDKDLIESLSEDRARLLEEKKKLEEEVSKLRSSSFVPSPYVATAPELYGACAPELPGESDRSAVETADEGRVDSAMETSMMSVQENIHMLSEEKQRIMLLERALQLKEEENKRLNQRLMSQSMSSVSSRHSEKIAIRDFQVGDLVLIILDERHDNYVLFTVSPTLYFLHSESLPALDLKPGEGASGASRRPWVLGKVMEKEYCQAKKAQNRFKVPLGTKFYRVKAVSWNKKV
FIP200 ΔN1115 V1576S-Luciferase (Q8TDY2, form named): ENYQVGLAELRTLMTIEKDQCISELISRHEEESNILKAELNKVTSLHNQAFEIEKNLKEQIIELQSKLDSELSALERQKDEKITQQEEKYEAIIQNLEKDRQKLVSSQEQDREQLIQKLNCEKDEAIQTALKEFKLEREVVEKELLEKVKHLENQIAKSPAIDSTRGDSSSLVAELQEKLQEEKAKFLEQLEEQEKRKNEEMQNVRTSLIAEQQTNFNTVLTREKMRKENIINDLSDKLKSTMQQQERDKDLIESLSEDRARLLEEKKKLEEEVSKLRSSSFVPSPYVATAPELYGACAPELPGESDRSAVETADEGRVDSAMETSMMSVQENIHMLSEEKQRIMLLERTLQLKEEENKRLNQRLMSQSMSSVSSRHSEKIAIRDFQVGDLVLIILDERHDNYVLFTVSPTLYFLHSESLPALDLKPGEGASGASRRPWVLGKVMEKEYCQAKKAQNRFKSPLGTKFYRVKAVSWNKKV

Luciferase:NDP52 (human) = target: T2, Luciferase:NDP52 (human) (UniProt Q13137); assay: as above
T2 sequence: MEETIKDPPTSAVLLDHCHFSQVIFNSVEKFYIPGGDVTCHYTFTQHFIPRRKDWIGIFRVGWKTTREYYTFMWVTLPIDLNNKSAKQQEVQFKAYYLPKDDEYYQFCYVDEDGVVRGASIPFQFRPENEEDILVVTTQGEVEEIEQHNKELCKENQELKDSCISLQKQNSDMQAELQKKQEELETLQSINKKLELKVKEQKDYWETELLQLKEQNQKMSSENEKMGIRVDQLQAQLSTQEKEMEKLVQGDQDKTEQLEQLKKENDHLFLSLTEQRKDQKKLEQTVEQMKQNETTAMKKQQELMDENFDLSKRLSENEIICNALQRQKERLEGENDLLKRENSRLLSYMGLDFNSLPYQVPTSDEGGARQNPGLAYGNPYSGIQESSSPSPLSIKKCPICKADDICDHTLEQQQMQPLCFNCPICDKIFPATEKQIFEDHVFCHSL

GST-FIP200ΔN1115 (human) [4] = target: GST-FIP200ΔN1115 (human) (UniProt Q8TDY2); assay: pull-down; GST-based LUMIER with GST-FIP200ΔN1115 and Luciferase:NDP52 in the presence of titrated amounts of bacterial lysates containing SINTBADaa5-85 or NAP1aa5-75; pairs with the GST bait; only the target purified
[5] = target: FLAG-NAP1 (HEK293ET) (human) (UniProt Q9H6S1); assay: co-IP; FLAG-based LUMIER: FLAG and Renilla luciferase fusions cotransfected into HEK293ET cells, FLAG protein immobilised on anti-FLAG M2 agarose 2 h at 4°C (20 mM Tris pH7.4, 150 mM NaCl, 0.1% Triton X-100, 5% glycerol), eluted with FLAG peptide, luciferase as fold binding against FLAG-GFP
[6] = target: FLAG-SINTBAD (HEK293ET) (human) (UniProt A7MCY6); assay: as above

- binding [1]: binds
Molecule: FIP200 ΔN1115 L1462A-Luciferase (from UniProt Q8TDY2 1116-1594) (domain or fragment)

- binding [1]: binds
Molecule: FIP200 ΔN1115 L1468A-Luciferase (from UniProt Q8TDY2 1116-1594) (domain or fragment)

- binding (GST:NAP1aa5–75 (human)): no binding
- binding [1]: no binding
Molecule: FIP200 ΔN1115 N1572S-Luciferase (from UniProt Q8TDY2 1116-1594) (domain or fragment)

- binding [1]: binds
Molecule: FIP200 ΔN1115 R1464A-Luciferase (from UniProt Q8TDY2 1116-1594) (domain or fragment)

- binding (GST-FIP200ΔN1115 (human) [2]): binds
Molecule: Luciferase-SINTBAD ΔN5 (from UniProt A7MCY6 6-615) (domain or fragment)

- binding (GST-FIP200ΔN1115 (human) [2]): no binding
Molecule: Luciferase-SINTBAD ΔN15 (from UniProt A7MCY6 16-615) (domain or fragment)

- binding [3]: no binding
- binding (Luciferase:NDP52 (human)): binds
- binding (GST-FIP200ΔN1115 (human) [4]): binds
Molecule: SINTBADaa5-85 (bacterial lysate) (from UniProt A7MCY6 5-85) (domain or fragment)

- binding [5]: binds
- binding [6]: binds
B1: Luciferase:NDP52 (protein, UniProt Q13137 1-446)
chain: MEETIKDPPTSAVLLDHCHFSQVIFNSVEKFYIPGGDVTCHYTFTQHFIPRRKDWIGIFRVGWKTTREYYTFMWVTLPIDLNNKSAKQQEVQFKAYYLPKDDEYYQFCYVDEDGVVRGASIPFQFRPENEEDILVVTTQGEVEEIEQHNKELCKENQELKDSCISLQKQNSDMQAELQKKQEELETLQSINKKLELKVKEQKDYWETELLQLKEQNQKMSSENEKMGIRVDQLQAQLSTQEKEMEKLVQGDQDKTEQLEQLKKENDHLFLSLTEQRKDQKKLEQTVEQMKQNETTAMKKQQELMDENFDLSKRLSENEIICNALQRQKERLEGENDLLKRENSRLLSYMGLDFNSLPYQVPTSDEGGARQNPGLAYGNPYSGIQESSSPSPLSIKKCPICKADDICDHTLEQQQMQPLCFNCPICDKIFPATEKQIFEDHVFCHSL

Further lines, the molecule ahead of its results:

Molecule: FIP200 ΔN1115 E1463A-Luciferase (from UniProt Q8TDY2 1116-1594) (domain or fragment)
- binding [1]: binds

Molecule: FIP200 ΔN1115 F1574S-Luciferase (from UniProt Q8TDY2 1116-1594) (domain or fragment)
- binding (GST:NAP1aa5–75 (human)): no binding
- binding [1]: no binding

Molecule: FIP200 ΔN1115 L1466A-Luciferase (from UniProt Q8TDY2 1116-1594) (domain or fragment)
- binding [1]: binds

Molecule: FIP200 ΔN1115 Q1467A-Luciferase (from UniProt Q8TDY2 1116-1594) (domain or fragment)
- binding [1]: binds

Molecule: FIP200 ΔN1115 T1465A-Luciferase (from UniProt Q8TDY2 1116-1594) (domain or fragment)
- binding [1]: binds

Molecule: FIP200 ΔN1115 V1576S-Luciferase (from UniProt Q8TDY2 1116-1594) (domain or fragment)
- binding (GST:NAP1aa5–75 (human)): no binding
- binding [1]: no binding

Molecule: FIP200ΔN1115:Luciferase (from UniProt Q8TDY2 1116-1594) (domain or fragment)
- binding (GST:NAP1aa5–75 (human)): binds
- binding [1]: binds

Molecule: Luciferase-tagged SINTBAD (from UniProt A7MCY6 1-615)
- binding (GST-FIP200ΔN1115 (human) [2]): binds

Molecule: NAP1aa5-75 (bacterial lysate) (from UniProt Q9H6S1 5-75) (domain or fragment)
- binding [3]: no binding
- binding (Luciferase:NDP52 (human)): binds
- binding (GST-FIP200ΔN1115 (human) [4]): binds

B2: Luciferase-NDP52 I24N (protein, UniProt Q13137 1-446)
chain: MEETIKDPPTSAVLLDHCHFSQVNFNSVEKFYIPGGDVTCHYTFTQHFIPRRKDWIGIFRVGWKTTREYYTFMWVTLPIDLNNKSAKQQEVQFKAYYLPKDDEYYQFCYVDEDGVVRGASIPFQFRPENEEDILVVTTQGEVEEIEQHNKELCKENQELKDSCISLQKQNSDMQAELQKKQEELETLQSINKKLELKVKEQKDYWETELLQLKEQNQKMSSENEKMGIRVDQLQAQLSTQEKEMEKLVQGDQDKTEQLEQLKKENDHLFLSLTEQRKDQKKLEQTVEQMKQNETTAMKKQQELMDENFDLSKRLSENEIICNALQRQKERLEGENDLLKRENSRLLSYMGLDFNSLPYQVPTSDEGGARQNPGLAYGNPYSGIQESSSPSPLSIKKCPICKADDICDHTLEQQQMQPLCFNCPICDKIFPATEKQIFEDHVFCHSL
- binding [5]: binds
- binding [6]: binds

B3: Luciferase-NDP52 Y70H (protein, UniProt Q13137 1-446)
chain: MEETIKDPPTSAVLLDHCHFSQVIFNSVEKFYIPGGDVTCHYTFTQHFIPRRKDWIGIFRVGWKTTREYHTFMWVTLPIDLNNKSAKQQEVQFKAYYLPKDDEYYQFCYVDEDGVVRGASIPFQFRPENEEDILVVTTQGEVEEIEQHNKELCKENQELKDSCISLQKQNSDMQAELQKKQEELETLQSINKKLELKVKEQKDYWETELLQLKEQNQKMSSENEKMGIRVDQLQAQLSTQEKEMEKLVQGDQDKTEQLEQLKKENDHLFLSLTEQRKDQKKLEQTVEQMKQNETTAMKKQQELMDENFDLSKRLSENEIICNALQRQKERLEGENDLLKRENSRLLSYMGLDFNSLPYQVPTSDEGGARQNPGLAYGNPYSGIQESSSPSPLSIKKCPICKADDICDHTLEQQQMQPLCFNCPICDKIFPATEKQIFEDHVFCHSL
- binding [5]: binds
- binding [6]: binds

B4: Luciferase-NDP52 Y96S (protein, UniProt Q13137 1-446)
chain: MEETIKDPPTSAVLLDHCHFSQVIFNSVEKFYIPGGDVTCHYTFTQHFIPRRKDWIGIFRVGWKTTREYYTFMWVTLPIDLNNKSAKQQEVQFKASYLPKDDEYYQFCYVDEDGVVRGASIPFQFRPENEEDILVVTTQGEVEEIEQHNKELCKENQELKDSCISLQKQNSDMQAELQKKQEELETLQSINKKLELKVKEQKDYWETELLQLKEQNQKMSSENEKMGIRVDQLQAQLSTQEKEMEKLVQGDQDKTEQLEQLKKENDHLFLSLTEQRKDQKKLEQTVEQMKQNETTAMKKQQELMDENFDLSKRLSENEIICNALQRQKERLEGENDLLKRENSRLLSYMGLDFNSLPYQVPTSDEGGARQNPGLAYGNPYSGIQESSSPSPLSIKKCPICKADDICDHTLEQQQMQPLCFNCPICDKIFPATEKQIFEDHVFCHSL
- binding [5]: binds
- binding [6]: binds

B5: Luciferase-NDP52 A119Q (protein, UniProt Q13137 1-446)
chain: MEETIKDPPTSAVLLDHCHFSQVIFNSVEKFYIPGGDVTCHYTFTQHFIPRRKDWIGIFRVGWKTTREYYTFMWVTLPIDLNNKSAKQQEVQFKAYYLPKDDEYYQFCYVDEDGVVRGQSIPFQFRPENEEDILVVTTQGEVEEIEQHNKELCKENQELKDSCISLQKQNSDMQAELQKKQEELETLQSINKKLELKVKEQKDYWETELLQLKEQNQKMSSENEKMGIRVDQLQAQLSTQEKEMEKLVQGDQDKTEQLEQLKKENDHLFLSLTEQRKDQKKLEQTVEQMKQNETTAMKKQQELMDENFDLSKRLSENEIICNALQRQKERLEGENDLLKRENSRLLSYMGLDFNSLPYQVPTSDEGGARQNPGLAYGNPYSGIQESSSPSPLSIKKCPICKADDICDHTLEQQQMQPLCFNCPICDKIFPATEKQIFEDHVFCHSL
- binding [5]: no binding
- binding [6]: no binding

Source: PMC6477152 (2019)
